## Primary screen of a compound library

By UniProt entry, the sequences of proteins in these tests, tags left out. Residues count along the entry.
UniProt P9WPC5, whole entry: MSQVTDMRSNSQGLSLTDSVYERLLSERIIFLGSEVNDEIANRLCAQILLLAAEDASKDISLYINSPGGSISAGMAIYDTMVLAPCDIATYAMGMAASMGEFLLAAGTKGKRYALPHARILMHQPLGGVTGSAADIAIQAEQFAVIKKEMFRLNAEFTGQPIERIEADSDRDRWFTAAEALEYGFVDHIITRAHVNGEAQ
UniProt P9WPC3, whole entry partner: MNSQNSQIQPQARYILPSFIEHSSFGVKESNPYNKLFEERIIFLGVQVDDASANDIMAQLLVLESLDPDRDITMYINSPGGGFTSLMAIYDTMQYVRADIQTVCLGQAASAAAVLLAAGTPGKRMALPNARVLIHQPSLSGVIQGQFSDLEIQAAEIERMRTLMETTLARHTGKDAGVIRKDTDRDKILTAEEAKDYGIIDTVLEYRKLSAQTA
UniProt P9WFT3, whole entry: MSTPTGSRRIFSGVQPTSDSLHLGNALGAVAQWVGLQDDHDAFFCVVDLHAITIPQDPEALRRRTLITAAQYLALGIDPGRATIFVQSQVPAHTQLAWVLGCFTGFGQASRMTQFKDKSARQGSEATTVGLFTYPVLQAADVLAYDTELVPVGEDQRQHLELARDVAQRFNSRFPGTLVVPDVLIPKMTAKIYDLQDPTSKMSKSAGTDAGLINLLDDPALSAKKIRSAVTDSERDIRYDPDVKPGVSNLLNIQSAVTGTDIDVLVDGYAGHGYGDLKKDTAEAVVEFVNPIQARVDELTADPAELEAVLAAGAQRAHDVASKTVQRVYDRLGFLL
UniProt Q8IDJ8, 1-583: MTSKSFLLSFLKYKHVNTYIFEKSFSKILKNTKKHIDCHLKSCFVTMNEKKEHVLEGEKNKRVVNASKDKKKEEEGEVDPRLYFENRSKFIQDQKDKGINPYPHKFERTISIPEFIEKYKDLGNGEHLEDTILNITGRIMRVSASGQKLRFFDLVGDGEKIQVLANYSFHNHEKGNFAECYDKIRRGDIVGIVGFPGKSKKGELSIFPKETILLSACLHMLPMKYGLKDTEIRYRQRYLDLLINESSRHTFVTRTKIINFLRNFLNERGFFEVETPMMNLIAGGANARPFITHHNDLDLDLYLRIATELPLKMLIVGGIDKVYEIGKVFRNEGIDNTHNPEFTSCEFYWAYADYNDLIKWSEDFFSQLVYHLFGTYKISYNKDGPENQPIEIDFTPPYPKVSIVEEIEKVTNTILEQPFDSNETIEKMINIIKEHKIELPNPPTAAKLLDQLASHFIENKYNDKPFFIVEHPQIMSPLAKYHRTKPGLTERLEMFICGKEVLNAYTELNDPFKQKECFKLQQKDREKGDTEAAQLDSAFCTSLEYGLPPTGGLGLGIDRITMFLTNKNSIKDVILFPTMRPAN

ClpP1P2: 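ClpP1P2, Mycobacterium tuberculosis (UniProt P9WPC5 and UniProt P9WPC3). Protease assay of ClpP1P2, read by the AMC dye that it sets free. Tested at 50 µM. Higher reads as stronger inhibition, judged from the few compounds that gave an IC50. Most other retested compounds had strongly negative values. Size under these conditions: about 69,000 compounds, about 10 of them at 50% or above in at least one test.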
MtTrpRS: 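Tryptophan-tRNA ligase, Mycobacterium tuberculosis (UniProt P9WFT3). Enzyme assay of tryptophanyl-tRNA synthetase; the read-out is not stated. Tested at 10 µM. Higher most likely means stronger inhibition; the record gives no direction and few retests gave an IC50. Size under these conditions: about 65,000 compounds, about 64 of them at 50% or above in at least one test.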
PfKRS1: 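Enzyme assay of the cytosolic lysyl-tRNA synthetase in 384-well plates, read by luminescence. Target: Lysine-tRNA ligase, Plasmodium falciparum 3D7 (UniProt Q8IDJ8). Tested at 30 µM. Direction is inferred from only a few compounds that gave an IC50; most scored high, so higher reads as stronger inhibition. Of about 69,000 compounds tested this way, about 49 (0.071%) reached 50% or more in at least one test.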

Each number is a percent effect as filed. How 0% and 100% were set is not recorded. Most values in the screen are low, and negative values occur. Compounds were drawn at random from those tested, without regard to their results. A dash means the value is not listed here; it may have been measured.

compound | ClpP1P2 | MtTrpRS | PfKRS1
N#Cc1ccnc(N2CCN(C(=O)Cc3ccc4c(c3)CCO4)CC2)c1 | 7.957% | -4.56% | 1.904%
Cn1nc(-c2ccccc2)cc1[C@H]1CN2CC[C@H]1C[C@@H]2CNS(C)(=O)=O | -9.802% | 0.3814% | 1.09%
CNC(=O)c1cc2c(nc1NCC(C)C)CCN(S(=O)(=O)N(C)C)CC2 | -199.7% | -7.052% | 2.189%
CCn1nccc1C(=O)Nc1nc(C)c(C(C)=O)s1 | -1.481% | 3.417% | 3.276%
CN(C)c1ccc(-c2cc(=O)n3c(n2)CCCCC3)cc1 | 6.39% | 0% | -1.019%
Cc1nc2ccc(C(=O)N3CC[C@H](O)[C@@H](N4CCOCC4)CC3)cc2[nH]1 | 7.065% | 1.565% | -1.452%
CC(C)n1ccnc1C1CCCN(c2ccncc2F)C1 (centres unmarked) | 5.176% | -5.093% | 6.562%
CN(CCc1cccs1)CCc1nccs1 | -0.1006% | -4.915% | 6.872%
CN(C)S(=O)(=O)NCc1cccnc1Oc1ccc(F)cc1F | -4.384% | -0.503% | -1.298%
Cc1ccc(-c2ccnc(NCC3(N(C)C)CCOCC3)n2)c(C)n1 | -8.59% | -3.61% | 2.41%
O=C(c1ccc(Cn2cc(Br)cn2)cc1)N1CCOCC1 | -5.335% | -0.892% | 3.415%
Cc1cc(CN(C)C2CCCN(Cc3noc(C)n3)C2)on1 (centres unmarked) | 11.3% | 5.126% | 8.272%
Cn1cc(C(=O)NCC2CCN(C(=O)NCC(F)(F)F)CC2)cn1 | 2.919% | 0.6823% | 2.831%
Cc1ccc(C(=O)N2CCn3cnc(COCC4CC4)c3C2)cn1 | 5.24% | -1.355% | 4.466%
O=C(C[C@@H]1COC[C@H]2CN(C3CCOCC3)C[C@@H]12)Nc1cnccn1 | -9.76% | 1.285% | -1.806%
Cc1ccc(-c2nc(CN3CCOC(Cn4cccn4)C3)co2)cc1 (centres unmarked) | -16.07% | -4.212% | 0.9367%
COc1ccc(CC(=O)Nc2c(C)nc(N3CCCC3)nc2C)cc1 | -4.649% | -4.787% | 2.23%
CC(=O)N1CC(=O)N(c2cnn(C)c2)CC12CCN(Cc1ccco1)C2 (centres unmarked) | -1.01% | -4.312% | -1.325%
COc1cccc(CN2CCC3(CCN(C(=O)[C@H]4CCCO4)CC3)C2)c1 | 17.33% | -0.687% | 0.541%
CCc1nc2n(n1)CC(NCc1nc(C)c(C)o1)CC2 (centres unmarked) | -6.395% | 1.982% | 4.294%
O=C(Nc1ccccn1)c1ccc(F)c(S(=O)(=O)NC2CC2)c1 | -6.048% | -19.33% | -0.7604%
CCOc1ccc(C(F)(F)F)cc1NCc1nc(C)c(C)o1 | -9.865% | -3.363% | 1.774%
CCN(CC)S(=O)(=O)c1ccc(C(F)(F)F)cc1C#N | 4.443% | -0.1715% | 0.5039%
Cc1cc(N2CCCC(c3n[nH]c4ncccc34)C2)ncn1 (centres unmarked) | 1.334% | - | -1.249%
Cc1nccn1-c1cc(CNS(=O)(=O)N2CCCC(C)C2)ccn1 (centres unmarked) | -3.443% | 3.881% | 1.14%
CC(C)n1ccc(-c2cc(C(=O)N3CCCC3)c3ccccn23)n1 | -45.25% | -4.098% | -11.44%
CCn1nnnc1-c1cccc(NC(=O)CCn2cc(C)cn2)c1 | -2.24% | -3.152% | 8.002%
Cc1cccc(-n2ncc3c2CCCC3NCC(C)(C)CO)c1C (centres unmarked) | -19.47% | -1.765% | 2.9%
CCOCCNC(=O)c1cccc(Cn2nc(C)cc2C)c1 | -22.57% | 3.183% | 7.777%
COc1ccc(C[C@H]2CNCC[C@@H]2OCC2CC2)cc1 | -0.2332% | -8.866% | 1.817%
COCc1nn(C(C)C)c2c1CCN(Cc1nccs1)C2 | -2.642% | -0.4504% | 0.3896%
CCc1nc(CN(C(C)=O)C2CCN(Cc3csc(C)n3)C2)no1 (centres unmarked) | -0.4791% | -8.94% | -0.8682%
CCN(CC1CCOC1)C(=O)c1cn2ccc(C)cc2n1 (centres unmarked) | 14.78% | 0.2194% | 3.282%
COc1ccc(-c2cc(C3CCCCCN3S(C)(=O)=O)on2)cc1 (centres unmarked) | -10.94% | 18.6% | -1.069%
COc1ccc2c(c1)C(=O)NC1(CC2)CCN(Cc2ccccc2)C1 (centres unmarked) | -3.817% | -3.455% | -0.4837%
CC(C)N1CCCCC1c1nc(N(C)C)ncc1I (centres unmarked) | 1.957% | 20.51% | -2.039%
Nc1ncc2c(n1)CN(C1CCCC1)C2=O | -6.779% | 3.894% | -
Cc1ccnc(C(NC(=O)c2ccc(O)nc2C)C2CC2)n1 (centres unmarked) | 23.25% | 17.32% | -1.512%
CN1CC[C@]2(CN(Cc3nccs3)C[C@H]2c2ccccc2)C1=O | -1.863% | -4.328% | 1.118%
O=C(c1cnc2c(cnn2C2CCCC2)c1)N1CCCSCC1 | -13.15% | -5.814% | -2.608%
COc1ccccc1C(O)CNC(=O)Nc1ccccn1 (centres unmarked) | -7.113% | 2.98% | 0.1315%

The first 3 entries again:

With N#Cc1ccnc(N2CCN(C(=O)Cc3ccc4c(c3)CCO4)CC2)c1 the screen gave ClpP1P2: 7.957%; MtTrpRS: -4.56%; PfKRS1: 1.904%.
With Cn1nc(-c2ccccc2)cc1[C@H]1CN2CC[C@H]1C[C@@H]2CNS(C)(=O)=O the screen gave ClpP1P2: -9.802%; MtTrpRS: 0.3814%; PfKRS1: 1.09%.
With CNC(=O)c1cc2c(nc1NCC(C)C)CCN(S(=O)(=O)N(C)C)CC2 the screen gave ClpP1P2: -199.7%; MtTrpRS: -7.052%; PfKRS1: 2.189%.

From ChEMBL document CHEMBL3988442, “University of Dundee, Small-Polar-MMV Screening Library” (2021).